# Data published in patent publication US20200108074A1, “COMBINATIONS OF CHK1- AND WEE1- INHIBITORS” (Seattle Genetics, Inc., priority 2017, published 2020).
# “Also recorded” adds a separate entry of the source. For at least one compound, name, drawing or mass did not settle the structure.
# How the values were obtained:
# Chk1 = target: T1, Chk1 (Homo sapiens, UniProt O14757); experiment: Chk1 enzymatic assay; format: biochemical
# T1 sequence (O14757 1-476): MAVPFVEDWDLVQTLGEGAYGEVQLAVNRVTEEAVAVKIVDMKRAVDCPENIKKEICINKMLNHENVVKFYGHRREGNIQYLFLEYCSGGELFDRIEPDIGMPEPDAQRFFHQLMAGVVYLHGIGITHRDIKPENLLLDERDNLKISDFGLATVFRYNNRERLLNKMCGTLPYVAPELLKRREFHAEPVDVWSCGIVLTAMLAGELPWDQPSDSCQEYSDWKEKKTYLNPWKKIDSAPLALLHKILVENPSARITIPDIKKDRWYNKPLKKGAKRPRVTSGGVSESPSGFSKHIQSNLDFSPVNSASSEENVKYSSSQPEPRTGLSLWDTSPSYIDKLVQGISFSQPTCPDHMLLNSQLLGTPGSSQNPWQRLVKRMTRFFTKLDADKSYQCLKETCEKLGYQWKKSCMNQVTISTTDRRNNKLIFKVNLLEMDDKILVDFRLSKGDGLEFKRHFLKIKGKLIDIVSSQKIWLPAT
# [1] = tested on: solid and hematological tumor-derived cell lines; experiment: Large cell line panel proliferation screens (CellTiter-Glo); format: cell-based; conditions: panel of 232 carcinoma derived cell lines, 72 hours
# Description: A panel of 232 carcinoma derived cell lines was screened in a high-throughput proliferation assay using dilutions of Compound 1 or cisplatin. Cell lines were treated with serial half-log dilutions of Compound 1 or cisplatin using a starting concentration of 30 μM to achieve 9 dose levels and assayed 72 hours later for proliferation using a CellTiter-Glo® Assay (Promega). IC50 (EC50) values were calculated by fitting the dose-response data using a nonlinear regression model.
# A panel of about 70 hematopoietic cell lines was screened for sensitivity to Compound 1 in a 72-hour proliferation assay (CrownBio Omnipanel). Cell lines that were screened included those representing anaplastic large cell lymphoma (ALCL), acute myeloid leukemia (AML), B-cell acute lymphoblastic leukemia (B-ALL), Burkitt lymphoma, chronic lymphocytic leukemia (CLL), chronic myelogenous leukemia (CML), mantle cell lymphoma (MCL), multiple myeloma (MM), acute promyelocytic leukemia (PML), and T-cell acute lymphoblastic leukemia (T-ALL).
# SK-MES-1 tumor cells = experiment: SK-MES-1 NSCLC tumor xenograft model; format: in vivo; conditions: 12.5, 25, or 50 mg/kg once per day, oral gavage, athymic nude mice
# Description: (§1) In order to assess the in vivo efficacy of Compound 1, two different NSCLC xenograft models were used. SK-MES-1 or NCI-H727 tumor cells were inoculated subcutaneously in the flanks of athymic nude mice. Once tumors reached a volume of about 200 mm^3, mice were randomized into study groups (n=10 per group). Mice were treated by oral gavage with Compound 1 at a dose of 12.5, 25, or 50 mg/kg once per day. A negative control group was also included, wherein the animals were administered vehicle only.
# NCI-H727 tumor cells = experiment: NCI-H727 NSCLC tumor xenograft model, single agent; format: in vivo; conditions: 12.5, 25, or 50 mg/kg once per day, oral gavage, athymic nude mice
# Description: as §1
# [2] = tested on: MCL cell lines (Z-138, Jeko-1, Maver-1, Granta-519, REC-1); experiment: MCL cell line proliferation (CellTiter-Glo); format: cell-based; conditions: 72 hours, single agent
# Jeko-1 cells [3] = experiment: Jeko-1 MCL xenograft model, single agent; format: in vivo; conditions: oral gavage; once per day for 21 days, or twice per day 3 days on/4 days off for three cycles; CB17.SCID mice
# Description: (§2) The effects of Compound 1 were assessed in two different mantle cell lymphoma (MCL) xenograft models. Jeko-1 and or Maver-1 cells were inoculated subcutaneously in the flanks of CB17.SCID (for Jeko-1 cells) or athymic nude (for Maver-1 cells) mice. Once the tumors reached a volume of about 200 mm^3, the mice were randomized into study groups (n=10 per group). Mice were treated with Compound 1 by oral gavage, or with only vehicle as a negative control. In one treatment group, Compound 1 was administered once per day for 21 days. In the other treatment group, Compound 1 was administered twice per day for three cycles, wherein each cycle constituted treatment for three consecutive days, followed by no treatment for four consecutive days.
# Maver-1 cells = experiment: Maver-1 MCL xenograft model, single agent; format: in vivo; conditions: oral gavage; once per day for 21 days, or twice per day 3 days on/4 days off for three cycles; athymic nude mice
# Description: as §2
# [4] = tested on: MCL cell lines (Jeko-1, Z-138, Maver-1); experiment: phospho-H2A.X (S139) immunoblot in MCL cell lines; format: cell-based; conditions: 18 hours
# [5] = tested on: MCL cells (Jeko-1, Maver-1, Z-138); experiment: Caspase-3/7 induction (CaspaseGlo 3/7) in MCL cells; format: cell-based; conditions: 18 hours
# Jeko-1 cells [6] = experiment: Jeko-1 MCL tumor xenograft model, combination with Wee1 inhibitor; format: in vivo; conditions: Compound 1 7.5 mg/kg, AZD-1775 15 mg/kg, or both; oral gavage once per day, three cycles of 3 days on/4 days off
# Description: A Jeko-1 mantle cell lymphoma (MCL) tumor xenograft model was used to study the combined effects of Chk1 inhibition with Compound 1 and a Wee1 inhibitor. Jeko-1 cells were inoculated subcutaneously into the flanks of CB17.SCID mice. Once tumors reached a volume of about 200 mm^3, mice were randomized into study groups (n=10 per group). […] A negative control group was included wherein the mice were treated with vehicle only.
# AML cell lines = experiment: AML cell line proliferation (CellTiter-Glo); format: cell-based; conditions: 72 hours
# THP-1 AML cells = experiment: phospho-H2A.X Luminex assay in THP-1 cells; format: cell-based; conditions: 18 hours
# MV-411 cells = experiment: MV-411 AML tumor xenograft model; format: in vivo; conditions: oral gavage, female NOD.SCID mice
# From the text: An MV-411 tumor xenograft model was used to test the ability of Compound 1 to inhibit AML tumor growth in vivo. MV-411 cells were mixed with Matrigel in a 1:1 ratio and injected subcutaneously into the right flanks of female NOD.SCID mice. Once tumors reached a volume of about 100 to 200 mm^3, mice were randomized into study groups (n=10 per group) and dosed with Compound 1 by oral gavage.
structure (smiles),measurement,setting,value
"COc1cc(C2(F)CCN(C)CC2)ccc1-c1cc(Nc2cnc(C#N)cn2)n[nH]1 [Compound 1, 5-((5-(4-(4-fluoro-1-methylpiperidin-4-yl)-2-methoxyphenyl)-1H-pyrazol-3-yl)amino)pyrazine-2-carbonitrile]",potency against Chk1 (in words),Chk1,sub-nanomolar
same,growth inhibition in carcinoma cell lines,[1],effective in inhibiting growth
same,tumor growth,SK-MES-1 tumor cells,inhibited tumor growth in both xenograft models in a dose-dependent manner
same,tumor growth,NCI-H727 tumor cells,inhibited tumor growth in both xenograft models in a dose-dependent manner
same,anti-proliferative activity,[2],potent single-agent anti-proliferative activity
same,tumor growth,Jeko-1 cells [3],complete tumor regression; also recorded: significantly inhibited tumor growth
same,tumor growth,Maver-1 cells,significantly inhibited tumor growth
same,"DNA damage, phospho-H2A.X (S139) levels",[4],induced DNA damage
same,"apoptosis, caspase-3/7 induction",[5],induce apoptosis
same,tumor growth,Jeko-1 cells [6],inhibited by both agents alone
same,anti-proliferative activity,AML cell lines,anti-proliferative activity
same,"DNA damage, phospho-H2A.X",THP-1 AML cells,induce DNA damage in THP-1 cells in a dose-dependent manner
same,tumor growth,MV-411 cells,inhibited MV-411 tumor growth in a dose-dependent fashion
